According to the supplement of paper PMC10849652:
The list shows a part of the results.

By UniProt entry, the sequences of proteins in these tests, tags left out. Where a name states a change or a piece, a line headed by the entry shows the natural chain unless it says otherwise.
UniProt P53671: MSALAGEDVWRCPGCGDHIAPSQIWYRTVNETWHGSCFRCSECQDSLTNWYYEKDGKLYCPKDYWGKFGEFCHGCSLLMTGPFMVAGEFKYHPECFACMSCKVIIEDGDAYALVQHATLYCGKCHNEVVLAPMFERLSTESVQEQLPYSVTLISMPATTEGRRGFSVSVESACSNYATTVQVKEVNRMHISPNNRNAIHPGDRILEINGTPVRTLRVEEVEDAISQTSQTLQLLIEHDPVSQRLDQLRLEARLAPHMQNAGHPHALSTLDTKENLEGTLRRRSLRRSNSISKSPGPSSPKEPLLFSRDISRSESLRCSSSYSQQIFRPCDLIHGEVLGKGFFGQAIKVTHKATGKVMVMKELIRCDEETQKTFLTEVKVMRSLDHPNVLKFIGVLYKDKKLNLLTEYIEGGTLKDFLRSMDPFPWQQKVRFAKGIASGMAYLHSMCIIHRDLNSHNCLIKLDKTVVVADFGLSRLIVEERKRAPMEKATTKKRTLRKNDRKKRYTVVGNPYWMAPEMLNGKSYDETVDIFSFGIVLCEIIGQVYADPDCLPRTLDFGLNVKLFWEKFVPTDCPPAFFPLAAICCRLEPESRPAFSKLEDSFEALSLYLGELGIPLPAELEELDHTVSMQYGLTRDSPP
UniProt Q9UGP4: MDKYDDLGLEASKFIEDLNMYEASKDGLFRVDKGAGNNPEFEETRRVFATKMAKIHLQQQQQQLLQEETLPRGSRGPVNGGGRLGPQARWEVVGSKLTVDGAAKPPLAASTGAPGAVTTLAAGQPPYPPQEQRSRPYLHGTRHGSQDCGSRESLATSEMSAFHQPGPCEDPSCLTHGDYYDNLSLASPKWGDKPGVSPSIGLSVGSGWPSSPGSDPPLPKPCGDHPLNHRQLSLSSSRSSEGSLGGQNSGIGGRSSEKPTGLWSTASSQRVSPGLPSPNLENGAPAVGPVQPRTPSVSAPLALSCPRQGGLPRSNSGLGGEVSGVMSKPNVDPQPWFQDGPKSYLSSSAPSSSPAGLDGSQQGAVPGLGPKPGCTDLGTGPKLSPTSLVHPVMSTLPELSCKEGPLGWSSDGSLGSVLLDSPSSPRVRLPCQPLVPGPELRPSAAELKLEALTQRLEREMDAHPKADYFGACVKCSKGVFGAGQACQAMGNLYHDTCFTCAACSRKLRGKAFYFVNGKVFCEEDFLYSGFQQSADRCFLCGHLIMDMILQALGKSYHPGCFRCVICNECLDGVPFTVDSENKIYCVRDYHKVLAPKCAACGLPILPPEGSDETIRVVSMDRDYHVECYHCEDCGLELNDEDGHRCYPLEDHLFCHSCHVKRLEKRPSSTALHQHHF
UniProt Q15334: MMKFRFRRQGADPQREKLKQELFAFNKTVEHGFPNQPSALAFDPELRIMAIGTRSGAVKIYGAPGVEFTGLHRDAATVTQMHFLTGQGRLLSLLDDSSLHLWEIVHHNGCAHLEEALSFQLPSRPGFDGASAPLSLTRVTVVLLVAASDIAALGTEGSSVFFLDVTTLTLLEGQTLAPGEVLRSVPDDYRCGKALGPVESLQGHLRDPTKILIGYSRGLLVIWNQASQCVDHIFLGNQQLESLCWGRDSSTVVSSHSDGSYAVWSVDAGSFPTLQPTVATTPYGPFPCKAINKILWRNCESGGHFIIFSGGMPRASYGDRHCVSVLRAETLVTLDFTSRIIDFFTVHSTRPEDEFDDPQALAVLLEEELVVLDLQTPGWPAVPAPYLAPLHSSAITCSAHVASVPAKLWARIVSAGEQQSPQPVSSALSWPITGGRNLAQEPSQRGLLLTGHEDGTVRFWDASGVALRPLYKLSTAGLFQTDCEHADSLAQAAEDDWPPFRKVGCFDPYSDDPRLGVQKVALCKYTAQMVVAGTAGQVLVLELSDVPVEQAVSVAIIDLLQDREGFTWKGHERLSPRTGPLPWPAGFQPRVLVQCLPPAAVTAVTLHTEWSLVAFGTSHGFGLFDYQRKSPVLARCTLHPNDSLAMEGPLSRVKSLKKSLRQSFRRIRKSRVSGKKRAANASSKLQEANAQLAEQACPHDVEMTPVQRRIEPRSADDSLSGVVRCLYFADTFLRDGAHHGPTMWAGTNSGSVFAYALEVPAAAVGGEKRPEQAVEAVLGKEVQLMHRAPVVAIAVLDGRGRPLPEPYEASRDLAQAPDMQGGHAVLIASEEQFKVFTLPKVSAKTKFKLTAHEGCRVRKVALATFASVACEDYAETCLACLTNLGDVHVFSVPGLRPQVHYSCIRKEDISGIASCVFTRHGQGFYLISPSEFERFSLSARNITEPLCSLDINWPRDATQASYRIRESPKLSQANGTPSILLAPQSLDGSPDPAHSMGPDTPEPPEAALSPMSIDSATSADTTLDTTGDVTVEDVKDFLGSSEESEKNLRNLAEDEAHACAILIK
UniProt Q14847: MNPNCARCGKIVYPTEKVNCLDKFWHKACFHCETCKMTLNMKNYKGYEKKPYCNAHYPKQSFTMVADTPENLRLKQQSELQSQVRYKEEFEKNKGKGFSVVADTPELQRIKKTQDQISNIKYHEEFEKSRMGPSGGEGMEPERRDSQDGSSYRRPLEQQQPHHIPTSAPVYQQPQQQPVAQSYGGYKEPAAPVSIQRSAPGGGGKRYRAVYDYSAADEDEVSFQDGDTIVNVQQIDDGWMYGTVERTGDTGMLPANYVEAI
UniProt Q6UWE0: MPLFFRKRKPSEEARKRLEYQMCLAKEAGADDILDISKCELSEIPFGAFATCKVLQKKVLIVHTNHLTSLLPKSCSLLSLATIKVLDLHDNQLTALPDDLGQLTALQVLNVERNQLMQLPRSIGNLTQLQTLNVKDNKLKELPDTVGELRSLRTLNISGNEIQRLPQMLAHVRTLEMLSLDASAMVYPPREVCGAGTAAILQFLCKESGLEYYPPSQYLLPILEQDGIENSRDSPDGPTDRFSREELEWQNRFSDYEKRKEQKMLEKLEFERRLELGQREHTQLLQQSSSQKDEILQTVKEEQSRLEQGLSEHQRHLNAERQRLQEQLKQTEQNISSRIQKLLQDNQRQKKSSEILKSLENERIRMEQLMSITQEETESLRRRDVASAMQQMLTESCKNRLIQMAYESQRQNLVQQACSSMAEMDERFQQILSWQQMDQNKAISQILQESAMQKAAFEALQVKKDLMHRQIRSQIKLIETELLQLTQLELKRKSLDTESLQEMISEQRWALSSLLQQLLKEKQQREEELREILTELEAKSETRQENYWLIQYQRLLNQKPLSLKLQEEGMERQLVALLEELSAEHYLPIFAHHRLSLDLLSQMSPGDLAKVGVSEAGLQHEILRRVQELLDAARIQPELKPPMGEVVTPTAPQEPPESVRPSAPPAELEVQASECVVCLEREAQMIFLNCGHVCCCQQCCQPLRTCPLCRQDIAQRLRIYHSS
UniProt Q9C0E8: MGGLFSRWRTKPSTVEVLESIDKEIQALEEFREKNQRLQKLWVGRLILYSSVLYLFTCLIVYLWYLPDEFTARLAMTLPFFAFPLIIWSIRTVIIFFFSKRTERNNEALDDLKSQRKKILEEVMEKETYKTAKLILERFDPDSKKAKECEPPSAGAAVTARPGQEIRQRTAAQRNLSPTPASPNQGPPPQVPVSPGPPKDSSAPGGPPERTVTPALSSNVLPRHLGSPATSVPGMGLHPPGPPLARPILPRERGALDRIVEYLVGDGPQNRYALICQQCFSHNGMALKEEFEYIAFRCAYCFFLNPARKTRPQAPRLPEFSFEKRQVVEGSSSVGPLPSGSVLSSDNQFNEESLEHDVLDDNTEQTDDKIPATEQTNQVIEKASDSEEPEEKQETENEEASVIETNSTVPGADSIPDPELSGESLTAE
UniProt Q5TKA1: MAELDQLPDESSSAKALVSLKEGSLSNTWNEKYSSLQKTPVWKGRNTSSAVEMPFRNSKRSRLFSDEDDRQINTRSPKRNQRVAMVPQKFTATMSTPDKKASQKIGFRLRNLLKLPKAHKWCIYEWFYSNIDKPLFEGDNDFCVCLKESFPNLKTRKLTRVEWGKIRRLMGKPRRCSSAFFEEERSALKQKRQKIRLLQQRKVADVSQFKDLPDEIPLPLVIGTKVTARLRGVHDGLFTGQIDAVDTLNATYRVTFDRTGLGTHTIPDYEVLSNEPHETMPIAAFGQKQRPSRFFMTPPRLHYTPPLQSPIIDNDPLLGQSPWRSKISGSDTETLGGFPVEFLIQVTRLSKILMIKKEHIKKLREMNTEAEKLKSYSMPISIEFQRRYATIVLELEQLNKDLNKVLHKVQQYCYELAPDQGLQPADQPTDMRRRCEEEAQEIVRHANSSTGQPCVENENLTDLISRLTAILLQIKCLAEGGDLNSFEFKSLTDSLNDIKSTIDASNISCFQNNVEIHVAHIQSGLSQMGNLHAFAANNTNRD
UniProt Q9UIQ6, whole entry, looked up: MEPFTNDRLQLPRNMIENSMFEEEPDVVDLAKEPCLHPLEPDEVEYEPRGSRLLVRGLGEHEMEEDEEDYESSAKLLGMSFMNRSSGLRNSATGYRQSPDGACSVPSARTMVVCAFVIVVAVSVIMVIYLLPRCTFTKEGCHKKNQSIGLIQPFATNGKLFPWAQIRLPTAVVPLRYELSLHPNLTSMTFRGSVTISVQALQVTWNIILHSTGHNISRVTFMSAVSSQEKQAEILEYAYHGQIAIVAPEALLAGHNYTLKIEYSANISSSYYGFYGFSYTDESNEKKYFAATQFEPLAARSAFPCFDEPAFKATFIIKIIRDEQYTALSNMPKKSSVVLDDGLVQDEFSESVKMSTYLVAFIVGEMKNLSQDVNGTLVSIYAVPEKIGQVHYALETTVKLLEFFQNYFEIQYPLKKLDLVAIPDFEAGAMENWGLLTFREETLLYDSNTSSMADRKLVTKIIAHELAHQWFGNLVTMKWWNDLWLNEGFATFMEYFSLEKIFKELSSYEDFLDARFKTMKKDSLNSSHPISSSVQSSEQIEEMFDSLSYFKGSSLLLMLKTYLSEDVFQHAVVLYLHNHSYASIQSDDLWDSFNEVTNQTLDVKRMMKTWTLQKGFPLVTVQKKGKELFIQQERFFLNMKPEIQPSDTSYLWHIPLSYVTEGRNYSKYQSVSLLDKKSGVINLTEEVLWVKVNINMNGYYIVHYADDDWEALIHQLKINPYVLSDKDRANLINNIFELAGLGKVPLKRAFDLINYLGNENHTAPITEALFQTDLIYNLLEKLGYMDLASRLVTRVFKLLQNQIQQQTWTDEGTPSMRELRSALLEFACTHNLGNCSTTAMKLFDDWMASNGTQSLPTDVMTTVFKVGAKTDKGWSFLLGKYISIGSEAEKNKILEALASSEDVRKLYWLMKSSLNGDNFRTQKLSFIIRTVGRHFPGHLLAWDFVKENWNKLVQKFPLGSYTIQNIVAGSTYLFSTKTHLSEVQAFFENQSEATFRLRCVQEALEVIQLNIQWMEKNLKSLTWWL
UniProt P61968: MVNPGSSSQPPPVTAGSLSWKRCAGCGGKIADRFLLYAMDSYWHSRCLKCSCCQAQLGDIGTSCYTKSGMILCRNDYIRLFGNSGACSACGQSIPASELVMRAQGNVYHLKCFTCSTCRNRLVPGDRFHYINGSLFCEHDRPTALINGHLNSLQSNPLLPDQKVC
UniProt P49916: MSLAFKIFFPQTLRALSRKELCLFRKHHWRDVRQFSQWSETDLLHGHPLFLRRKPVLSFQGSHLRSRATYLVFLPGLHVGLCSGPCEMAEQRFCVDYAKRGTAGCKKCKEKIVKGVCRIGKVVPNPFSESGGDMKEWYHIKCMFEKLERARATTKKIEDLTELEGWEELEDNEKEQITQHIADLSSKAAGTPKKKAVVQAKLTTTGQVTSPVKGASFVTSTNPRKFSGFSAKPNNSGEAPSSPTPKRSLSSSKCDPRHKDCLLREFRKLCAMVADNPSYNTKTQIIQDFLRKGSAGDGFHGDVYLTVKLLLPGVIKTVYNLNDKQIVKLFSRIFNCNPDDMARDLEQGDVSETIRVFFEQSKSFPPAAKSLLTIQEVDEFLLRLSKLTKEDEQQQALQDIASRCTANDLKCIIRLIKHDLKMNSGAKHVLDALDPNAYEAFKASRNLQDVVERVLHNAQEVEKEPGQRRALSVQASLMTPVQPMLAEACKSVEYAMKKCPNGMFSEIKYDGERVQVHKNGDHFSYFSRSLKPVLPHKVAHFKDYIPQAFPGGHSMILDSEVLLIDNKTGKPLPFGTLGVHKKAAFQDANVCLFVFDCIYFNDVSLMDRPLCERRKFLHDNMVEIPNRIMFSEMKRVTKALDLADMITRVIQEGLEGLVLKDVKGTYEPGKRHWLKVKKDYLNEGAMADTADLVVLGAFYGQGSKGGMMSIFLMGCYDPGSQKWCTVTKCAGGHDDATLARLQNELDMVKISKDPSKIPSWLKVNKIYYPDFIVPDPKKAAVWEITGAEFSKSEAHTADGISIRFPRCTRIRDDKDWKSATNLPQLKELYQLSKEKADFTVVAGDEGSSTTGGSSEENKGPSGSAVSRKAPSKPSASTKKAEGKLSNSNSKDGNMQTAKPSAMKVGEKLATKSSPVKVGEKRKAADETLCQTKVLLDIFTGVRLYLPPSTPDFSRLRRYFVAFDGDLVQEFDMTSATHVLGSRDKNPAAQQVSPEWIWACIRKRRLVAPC

How the values were obtained:
Experiment in all cases: log2 fold change, soluble protein after heating vs DMSO (PISA); higher = thermal stabilisation; K562 lysate, 10 uM; active = over 0.2 and 3.5 SD of the protein, either way, in both replicates (recomputed)
erlotinib = compound: C#Cc1cccc(Nc2ncnc3cc(OCCOC)c(OCCOC)cc23)c1 [erlotinib]
In short: (§1)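 K562 pellets were dounce-homogenised in PBS pH 7.4 with 1 mM MgCl2, and the crude extract at 1 mg/mL protein was treated with 10 μM compound for 30 min. Aliquots were heated for 3 min across 48°C-58°C, pooled, and brought to 0.5% NP-40 at 4°C; soluble protein was the supernatant after 21,000xg for 90 min. Soluble protein was quantified by TMTpro 16plex LC-MS/MS with channel sums equalised, and reported as log2 fold change in thermal stability against DMSO controls, with values from duplicates.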

[1] = compound: C/C(=N\NC(=O)C1=CC(=CC=C1)S(=O)(=O)N2CCOCC2)/C3=C(C=CC(=C3)Cl)O
In short: as §1

[2] = compound: C1=CC(=CC=C1C2=NC3=C(N2)C=C(C=C3)C(=O)N)OC4=CC=C(C=C4)Cl
In short: as §1

[3] = compound: C1=CC2=C(C=CC(=C2)/C=C\3/C(=O)NC(=NCC4=CC=CS4)S3)N=C1
In short: as §1

[4] = compound: C1=CC2=NC=CN=C2C=C1/C=C/3\C(=O)NC(=O)S3
In short: as §1

[5] = compound: C1=CC=C(C=C1)C2=NC(=C(N2)C3=CC=NC=C3)C4=CC(=C(C=C4)Cl)O
In short: as §1

[6] = compound: C1=CC=C2C(=C1)C3=NNC4=CC=CC(=C43)C2=O
In short: as §1

[7] = compound: C1CCN(C1)C(=O)NC2=CC=CC(=C2)NC3=NC=C(C(=N3)NCCC4=CN=CN4)Br
In short: as §1

[8] = compound: C1CN(CCC1(CC2=CC=C(C=C2)Cl)N)C3=NC=NC4=C3C=CN4
In short: as §1

IRAK-1-4 Inhibitor I = compound: C1COCCN1CCN2C3=CC=CC=C3N=C2NC(=O)C4=CC(=CC=C4)[N+](=O)[O-] [IRAK-1-4 Inhibitor I]
In short: as §1

Measured: log2 fold change

LRRC20 (UniProt Q8TCA0)
inactive: erlotinib 0.025 | [1] -0.08 | [2] -0.039 | [3] 0.053 | [4] 0.061 | [5] -0.005 | [6] 0.009 | [7] 0.007 | [8] 0.021 | IRAK-1-4 Inhibitor I 0.02

LIMK2 isoform 3 (UniProt P53671)
inactive: erlotinib -0.013 | [1] -0.038 | [2] -0.048 | [3] 0.062 | [4] 0.053 | [5] 0.016 | [6] 0.003 | [7] -0.002 | [8] 0.001 | IRAK-1-4 Inhibitor I -0.031

LEPR (UniProt P48357)
inactive: erlotinib -0.006 | [1] -0.016 | [2] 0.001 | [3] -0.027 | [4] 0.001 | [5] -0.071 | [6] 0.022 | [7] -0.046 | [8] 0.115 | IRAK-1-4 Inhibitor I 0.078

LPIN3 isoform 2 (UniProt Q9BQK8)
inactive: erlotinib 0.025 | [1] -0.03 | [2] -0.017 | [3] 0.041 | [4] -0.005 | [5] 0.017 | [6] -0.097 | [7] -0.073 | [8] -0.05 | IRAK-1-4 Inhibitor I -0.025

LIMD1 (UniProt Q9UGP4)
inactive: erlotinib 0.004 | [1] 0.001 | [2] 0.052 | [3] 0.009 | [4] -0.005 | [5] 0.013 | [6] 0.035 | [7] -0.027 | [8] 0.042 | IRAK-1-4 Inhibitor I 0.012

LIN28B (UniProt Q6ZN17)
inactive: erlotinib 0.018 | [1] -0.02 | [2] 0.017 | [3] -0.012 | [4] -0.01 | [5] 0.011 | [6] 0.031 | [7] 0.013 | [8] -0.025 | IRAK-1-4 Inhibitor I -0.014

Taken from the listing (five entries):
LIMK2 isoform 3 (UniProt P53671)
inactive: erlotinib -0.013 | [1] -0.038 | [2] -0.048 | [3] 0.062 | [4] 0.053 | [5] 0.016 | [6] 0.003 | [7] -0.002 | [8] 0.001 | IRAK-1-4 Inhibitor I -0.031

LEPR (UniProt P48357)
inactive: erlotinib -0.006 | [1] -0.016 | [2] 0.001 | [3] -0.027 | [4] 0.001 | [5] -0.071 | [6] 0.022 | [7] -0.046 | [8] 0.115 | IRAK-1-4 Inhibitor I 0.078

LPIN3 isoform 2 (UniProt Q9BQK8)
inactive: erlotinib 0.025 | [1] -0.03 | [2] -0.017 | [3] 0.041 | [4] -0.005 | [5] 0.017 | [6] -0.097 | [7] -0.073 | [8] -0.05 | IRAK-1-4 Inhibitor I -0.025

LIMD1 (UniProt Q9UGP4)
inactive: erlotinib 0.004 | [1] 0.001 | [2] 0.052 | [3] 0.009 | [4] -0.005 | [5] 0.013 | [6] 0.035 | [7] -0.027 | [8] 0.042 | IRAK-1-4 Inhibitor I 0.012

LIN28B (UniProt Q6ZN17)
inactive: erlotinib 0.018 | [1] -0.02 | [2] 0.017 | [3] -0.012 | [4] -0.01 | [5] 0.011 | [6] 0.031 | [7] 0.013 | [8] -0.025 | IRAK-1-4 Inhibitor I -0.014

Remaining list, next part:

LRFN1 (UniProt Q9P244)
inactive: erlotinib 0.124 | [1] -0.004 | [2] -0.099 | [3] 0.145 | [4] -0.215 | [5] -0.083 | [6] -0.049 | [7] -0.081 | [8] 0.312 | IRAK-1-4 Inhibitor I -0.126

LLGL1 (UniProt Q15334)
inactive: erlotinib 0.036 | [1] -0.06 | [2] 0.021 | [3] 0.02 | [4] 0.007 | [5] 0.001 | [6] -0.112 | [7] -0.08 | [8] 0.018 | IRAK-1-4 Inhibitor I -0.136

LINS1 (UniProt Q8NG48)
inactive: erlotinib 0.094 | [1] 0.002 | [2] -0.057 | [3] -0.042 | [4] 0.08 | [5] -0.035 | [6] 0.007 | [7] 0.003 | [8] 0 | IRAK-1-4 Inhibitor I -0.013

LASP1 (UniProt Q14847)
inactive: erlotinib -0.014 | [1] -0.005 | [2] -0.041 | [3] -0.01 | [4] -0.031 | [5] 0.031 | [6] 0.007 | [7] 0.03 | [8] 0.001 | IRAK-1-4 Inhibitor I -0.017

LIMS1 isoform 3 (UniProt P48059)
inactive: erlotinib -0.004 | [1] -0.034 | [2] 0.014 | [3] 0.009 | [4] -0.008 | [5] 0.004 | [6] 0.094 | [7] 0.003 | [8] -0.017 | IRAK-1-4 Inhibitor I -0.024

LRIF1 (UniProt Q5T3J3)
active: [3] -0.301
inactive: erlotinib -0.015 | [1] 0.11 | [2] 0.046 | [5] 0 | [6] 0.1 | [7] -0.031 | [8] -0.009 | IRAK-1-4 Inhibitor I -0.02

LRSAM1 (UniProt Q6UWE0)
inactive: erlotinib -0.006 | [1] 0.014 | [2] 0.029 | [3] -0.002 | [4] -0.028 | [5] -0.005 | [6] 0.016 | [7] -0.019 | [8] 0.03 | IRAK-1-4 Inhibitor I 0.017

LNPK (UniProt Q9C0E8)
inactive: erlotinib -0.008 | [1] -0.037 | [2] 0.02 | [3] -0.036 | [4] -0.032 | [5] -0.004 | [6] -0.053 | [7] 0.011 | [8] 0.036 | IRAK-1-4 Inhibitor I 0

LMAN2 (UniProt Q12907)
inactive: erlotinib -0.003 | [1] 0.052 | [2] -0.017 | [3] 0.006 | [4] 0 | [5] 0.002 | [6] -0.014 | [7] -0.009 | [8] 0.022 | IRAK-1-4 Inhibitor I -0.002

LRRCC1 (UniProt Q9C099)
inactive: erlotinib 0.089 | [1] -0.022 | [2] 0.092 | [3] -0.012 | [5] 0.031 | [6] -0.085 | [7] -0.019 | [8] 0.054 | IRAK-1-4 Inhibitor I 0.123

LMNB2 (UniProt Q03252)
inactive: erlotinib 0.047 | [1] 0.053 | [2] 0 | [3] 0.022 | [4] -0.019 | [5] 0.003 | [6] 0.047 | [7] 0.007 | [8] -0.022 | IRAK-1-4 Inhibitor I 0.012

LRIG2 (UniProt O94898)
inactive: erlotinib -0.065 | [1] -0.051 | [2] 0.085 | [3] -0.055 | [5] 0.046 | [6] -0.094 | [7] -0.125 | [8] -0.056 | IRAK-1-4 Inhibitor I -0.032

LIN9 isoform 2 (UniProt Q5TKA1)
inactive: erlotinib 0.04 | [1] 0.094 | [2] 0.074 | [3] -0.064 | [4] -0.012 | [5] -0.02 | [6] 0.023 | [7] -0.009 | [8] -0.034 | IRAK-1-4 Inhibitor I 0.015

LIN37 (UniProt Q96GY3)
inactive: erlotinib 0.09 | [1] -0.261 | [2] 0.102 | [3] -0.234 | [4] 0.027 | [5] 0.008 | [6] 0.025 | [7] 0.093 | [8] 0.066 | IRAK-1-4 Inhibitor I -0.007

LRBA (UniProt P50851)
inactive: erlotinib -0.007 | [1] 0.007 | [2] -0.005 | [3] -0.01 | [4] -0.002 | [5] -0.008 | [6] -0.016 | [7] -0.013 | [8] 0.008 | IRAK-1-4 Inhibitor I 0.009

LCLAT1 (UniProt Q6UWP7)
inactive: erlotinib -0.04 | [1] -0.026 | [2] 0.005 | [3] -0.008 | [4] -0.009 | [5] -0.04 | [6] -0.091 | [7] 0.021 | [8] 0.028 | IRAK-1-4 Inhibitor I 0.007

LSG1 (UniProt Q9H089)
inactive: erlotinib 0.044 | [1] 0.036 | [2] -0.059 | [3] -0.136 | [4] -0.021 | [5] 0 | [6] -0.114 | [7] -0.031 | [8] 0.103 | IRAK-1-4 Inhibitor I -0.048

LNPEP (UniProt Q9UIQ6)
inactive: erlotinib 0 | [1] -0.065 | [2] 0.025 | [3] 0.013 | [4] 0.005 | [5] 0.009 | [6] 0.01 | [7] 0.003 | [8] 0.014 | IRAK-1-4 Inhibitor I 0.008

LEPROTL1 isoform 2 (UniProt O95214)
inactive: erlotinib 0.128 | [1] -0.366 | [2] -0.085 | [3] -0.1 | [4] -0.053 | [5] -0.034 | [6] 0.055 | IRAK-1-4 Inhibitor I 0.155

LMO4 (UniProt P61968)
inactive: erlotinib -0.054 | [1] -0.1 | [2] -0.048 | [3] 0.089 | [5] 0.052 | [6] -0.096 | IRAK-1-4 Inhibitor I -0.034

LTA4H (UniProt P09960)
inactive: erlotinib -0.022 | [1] 0.001 | [2] 0.004 | [3] -0.002 | [4] -0.009 | [5] 0 | [6] 0.041 | [7] 0.021 | [8] 0.016 | IRAK-1-4 Inhibitor I 0.009

LIG3 (UniProt P49916)
inactive: erlotinib -0.003 | [1] 0.027 | [2] -0.04 | [3] 0.009 | [4] -0.006 | [5] 0.011 | [6] -0.013 | [7] 0 | [8] -0.036 | IRAK-1-4 Inhibitor I -0.035

LIMA1 isoform 4 (UniProt Q9UHB6)
inactive: erlotinib 0.001 | [1] -0.035 | [2] 0.002 | [3] -0.029 | [4] -0.018 | [5] 0.028 | [6] -0.007 | [7] -0.006 | [8] -0.025 | IRAK-1-4 Inhibitor I 0.009
